{
  "sequences": {"note": "The chains behind the UniProt entries cited, without tags or fusion partners. Where a name states a change or a piece, a line headed by the entry shows the natural chain unless it says otherwise.", "UniProt Q5M775": "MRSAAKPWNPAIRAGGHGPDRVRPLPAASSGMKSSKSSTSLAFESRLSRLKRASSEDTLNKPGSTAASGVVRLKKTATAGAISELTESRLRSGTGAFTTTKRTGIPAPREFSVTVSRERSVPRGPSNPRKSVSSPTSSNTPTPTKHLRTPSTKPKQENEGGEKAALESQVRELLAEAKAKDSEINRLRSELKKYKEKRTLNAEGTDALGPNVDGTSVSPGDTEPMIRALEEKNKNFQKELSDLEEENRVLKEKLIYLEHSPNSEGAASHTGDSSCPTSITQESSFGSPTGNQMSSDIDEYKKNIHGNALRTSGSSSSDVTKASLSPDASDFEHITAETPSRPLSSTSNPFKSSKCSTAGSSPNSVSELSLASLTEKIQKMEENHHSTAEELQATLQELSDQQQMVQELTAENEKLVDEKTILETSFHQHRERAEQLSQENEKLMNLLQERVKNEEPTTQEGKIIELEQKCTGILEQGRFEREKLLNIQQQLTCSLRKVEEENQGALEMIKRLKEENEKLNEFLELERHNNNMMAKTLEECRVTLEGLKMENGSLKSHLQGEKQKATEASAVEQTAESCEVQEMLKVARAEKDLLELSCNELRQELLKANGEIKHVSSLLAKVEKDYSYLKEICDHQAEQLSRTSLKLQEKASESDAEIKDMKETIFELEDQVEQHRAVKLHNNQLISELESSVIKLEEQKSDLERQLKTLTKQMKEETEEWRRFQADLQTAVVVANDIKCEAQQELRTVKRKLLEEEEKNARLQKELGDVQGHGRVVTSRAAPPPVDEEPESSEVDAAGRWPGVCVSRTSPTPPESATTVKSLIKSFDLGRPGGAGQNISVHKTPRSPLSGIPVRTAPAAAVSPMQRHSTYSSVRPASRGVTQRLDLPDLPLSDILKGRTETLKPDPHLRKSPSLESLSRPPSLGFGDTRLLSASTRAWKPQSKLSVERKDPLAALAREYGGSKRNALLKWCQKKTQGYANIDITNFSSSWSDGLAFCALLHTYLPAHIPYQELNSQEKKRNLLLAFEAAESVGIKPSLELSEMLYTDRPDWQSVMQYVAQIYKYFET", "UniProt P08047, whole entry, looked up": "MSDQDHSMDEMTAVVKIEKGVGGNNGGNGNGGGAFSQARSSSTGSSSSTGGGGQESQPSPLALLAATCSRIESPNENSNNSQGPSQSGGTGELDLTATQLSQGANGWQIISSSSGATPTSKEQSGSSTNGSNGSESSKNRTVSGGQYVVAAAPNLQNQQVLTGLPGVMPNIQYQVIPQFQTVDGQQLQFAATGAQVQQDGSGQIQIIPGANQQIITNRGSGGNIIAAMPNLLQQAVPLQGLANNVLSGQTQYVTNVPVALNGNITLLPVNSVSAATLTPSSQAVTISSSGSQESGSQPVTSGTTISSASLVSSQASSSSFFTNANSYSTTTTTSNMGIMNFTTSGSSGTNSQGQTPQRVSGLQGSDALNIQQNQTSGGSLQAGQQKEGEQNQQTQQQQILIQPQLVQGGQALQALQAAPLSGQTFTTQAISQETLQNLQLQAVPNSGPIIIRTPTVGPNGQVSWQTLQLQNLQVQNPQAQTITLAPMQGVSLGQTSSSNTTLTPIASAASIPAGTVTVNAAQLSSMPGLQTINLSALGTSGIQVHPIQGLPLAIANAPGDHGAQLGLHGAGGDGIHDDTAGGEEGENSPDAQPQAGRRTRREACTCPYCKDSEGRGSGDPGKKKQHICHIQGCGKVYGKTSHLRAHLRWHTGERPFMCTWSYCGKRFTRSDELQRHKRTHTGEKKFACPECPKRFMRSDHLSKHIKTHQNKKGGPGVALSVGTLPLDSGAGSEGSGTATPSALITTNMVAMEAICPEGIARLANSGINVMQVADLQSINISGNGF", "UniProt P19623": "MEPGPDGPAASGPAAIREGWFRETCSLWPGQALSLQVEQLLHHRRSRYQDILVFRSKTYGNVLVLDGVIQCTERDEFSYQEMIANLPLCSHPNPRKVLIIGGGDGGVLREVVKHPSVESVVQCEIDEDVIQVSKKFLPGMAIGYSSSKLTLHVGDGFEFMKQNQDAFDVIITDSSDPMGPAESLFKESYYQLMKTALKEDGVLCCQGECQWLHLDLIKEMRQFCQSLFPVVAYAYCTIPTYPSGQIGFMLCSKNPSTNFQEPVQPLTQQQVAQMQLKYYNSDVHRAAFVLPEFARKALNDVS", "UniProt Q9UHB9": "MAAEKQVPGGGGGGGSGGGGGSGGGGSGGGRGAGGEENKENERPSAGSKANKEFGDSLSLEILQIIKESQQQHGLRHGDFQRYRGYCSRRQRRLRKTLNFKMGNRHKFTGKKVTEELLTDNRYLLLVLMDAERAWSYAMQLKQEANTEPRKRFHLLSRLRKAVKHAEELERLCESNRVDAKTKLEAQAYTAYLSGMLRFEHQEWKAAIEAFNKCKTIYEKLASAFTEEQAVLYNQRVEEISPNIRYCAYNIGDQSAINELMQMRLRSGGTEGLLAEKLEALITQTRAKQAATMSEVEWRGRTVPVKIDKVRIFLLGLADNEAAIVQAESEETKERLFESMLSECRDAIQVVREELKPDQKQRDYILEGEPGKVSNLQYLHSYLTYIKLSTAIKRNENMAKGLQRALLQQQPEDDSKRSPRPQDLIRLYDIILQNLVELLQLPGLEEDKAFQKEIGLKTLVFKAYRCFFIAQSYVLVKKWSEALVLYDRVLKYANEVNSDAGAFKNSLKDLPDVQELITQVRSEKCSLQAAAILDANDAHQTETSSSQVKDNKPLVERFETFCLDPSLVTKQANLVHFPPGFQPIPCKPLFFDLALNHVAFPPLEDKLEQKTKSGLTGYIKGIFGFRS", "UniProt Q9UNH7": "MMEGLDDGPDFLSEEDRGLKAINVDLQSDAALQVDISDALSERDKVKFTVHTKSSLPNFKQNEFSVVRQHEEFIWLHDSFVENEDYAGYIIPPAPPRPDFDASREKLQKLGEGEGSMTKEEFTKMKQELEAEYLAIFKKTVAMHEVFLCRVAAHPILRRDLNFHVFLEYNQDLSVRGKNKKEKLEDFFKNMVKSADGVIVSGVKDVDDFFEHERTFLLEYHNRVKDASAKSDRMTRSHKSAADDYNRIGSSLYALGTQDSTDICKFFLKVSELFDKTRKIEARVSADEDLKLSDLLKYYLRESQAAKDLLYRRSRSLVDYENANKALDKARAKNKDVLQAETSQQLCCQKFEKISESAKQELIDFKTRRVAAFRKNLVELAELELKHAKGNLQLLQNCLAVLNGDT", "UniProt P55769": "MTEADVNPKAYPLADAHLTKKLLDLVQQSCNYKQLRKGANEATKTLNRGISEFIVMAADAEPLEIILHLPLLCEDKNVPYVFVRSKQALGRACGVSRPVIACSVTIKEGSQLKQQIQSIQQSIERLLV", "UniProt Q92673": "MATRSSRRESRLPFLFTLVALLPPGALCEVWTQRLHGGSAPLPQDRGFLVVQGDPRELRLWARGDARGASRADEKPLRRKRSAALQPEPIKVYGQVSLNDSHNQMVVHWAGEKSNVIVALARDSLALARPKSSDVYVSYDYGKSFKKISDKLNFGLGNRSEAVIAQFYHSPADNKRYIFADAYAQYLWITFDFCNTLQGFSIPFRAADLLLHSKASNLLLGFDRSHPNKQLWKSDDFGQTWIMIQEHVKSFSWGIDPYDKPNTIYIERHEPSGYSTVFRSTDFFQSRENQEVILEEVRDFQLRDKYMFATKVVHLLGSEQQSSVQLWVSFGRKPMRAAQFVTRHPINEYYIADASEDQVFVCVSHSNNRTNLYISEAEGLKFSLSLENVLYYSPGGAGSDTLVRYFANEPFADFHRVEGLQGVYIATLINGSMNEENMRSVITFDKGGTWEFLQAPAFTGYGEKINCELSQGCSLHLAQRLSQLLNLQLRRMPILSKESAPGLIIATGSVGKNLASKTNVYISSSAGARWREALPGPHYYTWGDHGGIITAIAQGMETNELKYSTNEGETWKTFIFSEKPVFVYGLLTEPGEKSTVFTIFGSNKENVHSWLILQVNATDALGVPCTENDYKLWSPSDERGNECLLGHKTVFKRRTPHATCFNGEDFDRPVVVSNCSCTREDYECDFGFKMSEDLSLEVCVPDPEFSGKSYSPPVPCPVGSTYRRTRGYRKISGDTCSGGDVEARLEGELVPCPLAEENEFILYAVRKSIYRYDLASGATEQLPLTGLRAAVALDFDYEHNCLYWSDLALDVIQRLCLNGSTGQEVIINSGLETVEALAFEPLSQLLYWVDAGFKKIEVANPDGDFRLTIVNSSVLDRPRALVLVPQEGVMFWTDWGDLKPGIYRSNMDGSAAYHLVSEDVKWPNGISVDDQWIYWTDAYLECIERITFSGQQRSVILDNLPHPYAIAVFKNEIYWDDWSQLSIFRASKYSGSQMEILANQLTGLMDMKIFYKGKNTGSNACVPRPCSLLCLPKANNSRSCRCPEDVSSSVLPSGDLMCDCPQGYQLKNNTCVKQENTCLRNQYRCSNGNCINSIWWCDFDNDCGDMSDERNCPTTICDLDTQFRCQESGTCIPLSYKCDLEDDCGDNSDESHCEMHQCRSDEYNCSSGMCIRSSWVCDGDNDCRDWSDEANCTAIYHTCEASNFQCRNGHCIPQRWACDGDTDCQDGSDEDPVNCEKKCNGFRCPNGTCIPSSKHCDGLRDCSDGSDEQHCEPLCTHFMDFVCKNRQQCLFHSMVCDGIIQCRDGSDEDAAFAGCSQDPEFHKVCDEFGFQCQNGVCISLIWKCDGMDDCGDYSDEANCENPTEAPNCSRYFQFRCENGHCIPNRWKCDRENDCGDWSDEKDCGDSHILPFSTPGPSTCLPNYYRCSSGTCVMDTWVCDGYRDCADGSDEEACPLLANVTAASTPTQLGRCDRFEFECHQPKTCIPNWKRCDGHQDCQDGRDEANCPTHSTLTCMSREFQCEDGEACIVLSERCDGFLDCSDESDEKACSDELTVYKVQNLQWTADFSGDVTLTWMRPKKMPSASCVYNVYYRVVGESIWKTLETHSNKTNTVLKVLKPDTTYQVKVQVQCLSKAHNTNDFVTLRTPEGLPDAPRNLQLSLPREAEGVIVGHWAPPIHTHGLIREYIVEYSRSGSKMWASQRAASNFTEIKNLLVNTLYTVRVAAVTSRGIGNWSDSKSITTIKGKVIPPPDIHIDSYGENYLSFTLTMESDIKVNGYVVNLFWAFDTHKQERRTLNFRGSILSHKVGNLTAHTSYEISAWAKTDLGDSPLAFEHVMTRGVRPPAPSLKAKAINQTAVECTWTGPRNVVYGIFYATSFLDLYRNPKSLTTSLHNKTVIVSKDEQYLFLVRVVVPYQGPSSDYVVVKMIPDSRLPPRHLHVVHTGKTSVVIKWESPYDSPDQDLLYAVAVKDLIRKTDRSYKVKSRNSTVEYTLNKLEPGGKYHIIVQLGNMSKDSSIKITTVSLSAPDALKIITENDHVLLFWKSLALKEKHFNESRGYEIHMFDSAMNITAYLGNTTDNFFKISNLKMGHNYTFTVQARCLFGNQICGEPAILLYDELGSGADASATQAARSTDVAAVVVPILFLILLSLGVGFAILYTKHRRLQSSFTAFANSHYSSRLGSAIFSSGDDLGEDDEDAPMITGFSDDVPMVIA", "UniProt P09132": "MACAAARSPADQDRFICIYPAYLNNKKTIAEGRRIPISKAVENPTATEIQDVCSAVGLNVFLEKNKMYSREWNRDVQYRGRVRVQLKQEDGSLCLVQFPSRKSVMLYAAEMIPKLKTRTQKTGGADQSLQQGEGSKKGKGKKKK", "UniProt P00441, whole entry, looked up": "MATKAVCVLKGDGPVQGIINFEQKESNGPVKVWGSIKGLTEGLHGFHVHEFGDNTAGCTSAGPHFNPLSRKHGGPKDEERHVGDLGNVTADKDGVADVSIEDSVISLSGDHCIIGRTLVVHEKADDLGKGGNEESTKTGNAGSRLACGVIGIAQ", "UniProt Q9H930": "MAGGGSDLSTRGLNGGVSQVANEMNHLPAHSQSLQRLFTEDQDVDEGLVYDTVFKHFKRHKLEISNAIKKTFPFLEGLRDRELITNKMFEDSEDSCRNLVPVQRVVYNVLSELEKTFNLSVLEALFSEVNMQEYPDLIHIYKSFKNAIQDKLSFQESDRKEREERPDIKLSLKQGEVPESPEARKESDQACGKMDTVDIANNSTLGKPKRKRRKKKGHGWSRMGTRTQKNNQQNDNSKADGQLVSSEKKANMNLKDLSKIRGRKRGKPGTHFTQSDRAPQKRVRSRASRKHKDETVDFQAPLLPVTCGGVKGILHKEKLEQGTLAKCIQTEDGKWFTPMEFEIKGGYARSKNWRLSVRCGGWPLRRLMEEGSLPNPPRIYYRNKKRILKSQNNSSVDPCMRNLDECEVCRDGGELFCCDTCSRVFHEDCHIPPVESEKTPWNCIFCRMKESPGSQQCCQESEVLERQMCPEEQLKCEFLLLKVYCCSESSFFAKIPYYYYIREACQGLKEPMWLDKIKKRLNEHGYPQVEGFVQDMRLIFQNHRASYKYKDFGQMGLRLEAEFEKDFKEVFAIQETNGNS", "UniProt P49458": "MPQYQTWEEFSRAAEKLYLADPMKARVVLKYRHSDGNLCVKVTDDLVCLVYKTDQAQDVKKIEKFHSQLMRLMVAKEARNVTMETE"},
  "source": "the supplement of paper PMC12067093",
  "about": "“Discovery and optimisation of a covalent ligand for TRIM25 and its application to targeted protein ubiquitination” (Chemical Science, 2025)",
  "note": "The list shows a part of the results.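 Further: competitive chemoproteomic profiling in live THP-1 cells with an iodoacetamide desthiobiotin (IA-DTB) probe, comparing probe-labelled peptide intensities in compound-treated cells against DMSO-treated controls.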",
  "data": [
    {"compound": "CC1Cc2ccccc2N1C(=O)C1CCCN(C1)C(=O)CCl (mixture of isomers) [TRIM25 ligand 11 (diastereomer mixture)]", "assay": "probe-labelled cysteine peptide fold change vs DMSO (competition) (log2 fold change); higher = less target engagement (more negative = stronger competition)", "details": "10 µM; THP-1; incubation time: 4 h", "values": [
      {"target": "SRC_P12931_248_LTTVCPTSKPQTQGLAK (UniProt P12931)", "probe-labelled cysteine peptide fold change": 0.103},
      {"target": "SNX1_Q13596_318_LQEVECEEQR (UniProt Q13596)", "probe-labelled cysteine peptide fold change": 0.0284},
      {"target": "SNRNP70_P08621_39_HHNQPYCGIAPYIR (UniProt P08621)", "probe-labelled cysteine peptide fold change": -0.124},
      {"target": "SPECC1_Q5M775_740_CEAQQELR (UniProt Q5M775)", "probe-labelled cysteine peptide fold change": 0.056},
      {"target": "SP1_P08047_633_QHICHIQGCGK (UniProt P08047)", "probe-labelled cysteine peptide fold change": 0.0312},
      {"target": "SRC_P12931_241_HADGLCHR (UniProt P12931)", "probe-labelled cysteine peptide fold change": 0.0892},
      {"target": "SRBD1_Q8N5C6_912_SIVCLEDLQIGTVLTGK (UniProt Q8N5C6)", "probe-labelled cysteine peptide fold change": 0.0769},
      {"target": "SRM_P19623_209_EDGVLCCQGECQWLHLDLIK (UniProt P19623)", "probe-labelled cysteine peptide fold change": 0.351},
      {"target": "SPATA5L1_Q9BVQ7_685_TMPIGPDVSLENLAAETCFFSGADLR (UniProt Q9BVQ7)", "probe-labelled cysteine peptide fold change": 0.256},
      {"target": "SRP68_Q9UHB9_344_LFESMLSECR (UniProt Q9UHB9)", "probe-labelled cysteine peptide fold change": -0.0404},
      {"target": "SPTAN1_Q13813_2233_TYLLDGSCMVEESGTLESQLEATK (UniProt Q13813)", "probe-labelled cysteine peptide fold change": 0.147},
      {"target": "SNX27_Q96L92_519_VFCELK (UniProt Q96L92)", "probe-labelled cysteine peptide fold change": 0.0222},
      {"target": "SRP68_Q9UHB9_173_LCESNR (UniProt Q9UHB9)", "probe-labelled cysteine peptide fold change": 0.14},
      {"target": "SNX6_Q9UNH7_347+348_DVLQAETSQQLCCQK (UniProt Q9UNH7)", "probe-labelled cysteine peptide fold change": 0.0531},
      {"target": "SNU13_P55769_93_ACGVSRPVIACSVTIK (UniProt P55769)", "probe-labelled cysteine peptide fold change": -0.0619},
      {"target": "SORL1_Q92673_643_LWSPSDERGNECLLGHK (UniProt Q92673)", "probe-labelled cysteine peptide fold change": -0.146},
      {"target": "SRP19_P09132_17_FICIYPAYLNNKK (UniProt P09132)", "probe-labelled cysteine peptide fold change": -0.268},
      {"target": "SORD_Q00796_106_ENDEFCK (UniProt Q00796)", "probe-labelled cysteine peptide fold change": -0.112},
      {"target": "SNX7_Q9UNH6_325_VECANNALK (UniProt Q9UNH6)", "probe-labelled cysteine peptide fold change": 0.134},
      {"target": "SPECC1_Q5M775_493_LLNIQQQLTCSLR (UniProt Q5M775)", "probe-labelled cysteine peptide fold change": -0.0352},
      {"target": "SP1_P08047_633_KQHICHIQGCGK (UniProt P08047)", "probe-labelled cysteine peptide fold change": -0.185},
      {"target": "SNRPB_P14678_19_CILQDGR (UniProt P14678)", "probe-labelled cysteine peptide fold change": 0.00174},
      {"target": "SOD1_P00441_147_LACGVIGIAQ (UniProt P00441)", "probe-labelled cysteine peptide fold change": -0.0438},
      {"target": "SNRPB_P14678_45_HMNLILCDCDEFRK (UniProt P14678)", "probe-labelled cysteine peptide fold change": -0.111},
      {"target": "SP140L_Q9H930_191_KESDQACGK (UniProt Q9H930)", "probe-labelled cysteine peptide fold change": -0.121},
      {"target": "SNX6_Q9UNH7_149_KTVAMHEVFLCR (UniProt Q9UNH7)", "probe-labelled cysteine peptide fold change": -0.161},
      {"target": "SPG11_Q96JI7_1890_LLDDGCVHEASR (UniProt Q96JI7)", "probe-labelled cysteine peptide fold change": 0.0515},
      {"target": "SPTAN1_Q13813_1454_MMLDQCLELQLFHRDCEQAENWMAAR (UniProt Q13813)", "probe-labelled cysteine peptide fold change": -0.0646},
      {"target": "SRP9_P49458_48_VTDDLVCLVYK (UniProt P49458)", "probe-labelled cysteine peptide fold change": -0.196},
      {"target": "SRP19_P09132_17_FICIYPAYLNNK (UniProt P09132)", "probe-labelled cysteine peptide fold change": 0.0533},
      {"target": "SPART_Q8N0X7_504_VSQFLVDGVCTVANCVGK (UniProt Q8N0X7)", "probe-labelled cysteine peptide fold change": 0.0256},
      {"target": "SP1_P08047_691_FACPECPK (UniProt P08047)", "probe-labelled cysteine peptide fold change": 0.0671},
      {"target": "SQSTM1_Q13501_113_DHRPPCAQEAPR (UniProt Q13501)", "probe-labelled cysteine peptide fold change": -0.122},
      {"target": "SORL1_Q92673_1376_CENGHCIPNR (UniProt Q92673)", "probe-labelled cysteine peptide fold change": -0.0127},
      {"target": "SRM_P19623_123_HPSVESVVQCEIDEDVIQVSK (UniProt P19623)", "probe-labelled cysteine peptide fold change": 0.14},
      {"target": "SP140L_Q9H930_429_VFHEDCHIPPVESEK (UniProt Q9H930)", "probe-labelled cysteine peptide fold change": -0.144}
    ]}
  ]
}
